± gives the standard deviation of the averaged measurements. Values are relative to the signal before dosing, not to a vehicle control; the signal also falls without drug.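 Labels refer to human fibroblasts, largely primary: uterine (C12385, HUF), lung (H6013), bone (Hs27A), adrenal (HADF), skin (WS1), plus mammary HMF and breast cancer-associated Hs343T. Cancer lines are basal-like or mesenchymal-like triple-negative breast cancer. The paper counts as hits responses shifting over 3x the replicate standard deviation. The tissue of the other fibroblasts is not given here.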
Test system: Hs578T
Assay: relative JC-1 red fluorescence (viability) vs pre-drug, coculture with fibroblast (fraction); higher = more viable cancer cells
Procedure: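 JC-1 labelled TNBC cells cocultured 1:1 (1,500 cells each) with CellTrace Violet stained primary or stromal fibroblasts in 384-well plates in FluoroBrite medium, treated with one of 42 anticancer drugs at 0.1, 1, 10 or 100 uM. JC-1 red fluorescence (mitochondrial integrity in cancer cells only) was read by plate reader every 8 h for 72 h. Values are normalised to each well's pre-drug value. The stock of one drug was tenfold lower, so its dose labels may be too high.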

CC[C@]1(O)C[C@H]2CN(CCc3c([nH]c4ccccc34)[C@@](C(=O)OC)(c3cc4c(cc3OC)N(C=O)[C@H]3[C@@](O)(C(=O)OC)[C@H](OC(C)=O)[C@]5(CC)C=CCN6CC[C@]43[C@@H]65)C2)C1 [Vincristine]
relative JC-1 red fluorescence
Settings	8 h	16 h	24 h	32 h	40 h	48 h	56 h	64 h	72 h
10 µM	0.888 ± 0.064	0.83 ± 0.063	0.782 ± 0.031	0.7238 ± 0.0059	0.646 ± 0.014	0.619 ± 0.024	0.608 ± 0.036	0.583 ± 0.048	0.602 ± 0.058
100 µM	0.9302 ± 0.0026	0.872 ± 0.015	0.849 ± 0.027	0.81 ± 0.046	0.748 ± 0.03	0.724 ± 0.032	0.709 ± 0.044	0.683 ± 0.031	0.683 ± 0.018

relative JC-1 red fluorescence
Settings	8 h	16 h	24 h	32 h	40 h	48 h	56 h	64 h	72 h
10 µM, coculture fibroblast: C12385	0.843 ± 0.0093	0.807 ± 0.014	0.7893 ± 0.0047	0.7105 ± 0.0055	0.639 ± 0.0078	0.603 ± 0.019	0.567 ± 0.027	0.551 ± 0.041	0.543 ± 0.037
10 µM, coculture fibroblast: H6013	0.8713 ± 0.0037	0.8408 ± 0.002	0.807 ± 0.009	0.763 ± 0.024	0.713 ± 0.036	0.702 ± 0.041	0.677 ± 0.026	0.672 ± 0.036	0.645 ± 0.028
10 µM, coculture fibroblast: H6019	0.811 ± 0.012	0.7436 ± 0.0011	0.728 ± 0.013	0.66 ± 0.021	0.627 ± 0.041	0.605 ± 0.036	0.593 ± 0.044	0.592 ± 0.051	0.588 ± 0.054
10 µM, coculture fibroblast: H6076	0.926 ± 0.028	0.896 ± 0.035	0.869 ± 0.031	0.8311 ± 0.0059	0.742 ± 0.02	0.726 ± 0.013	0.702 ± 0.015	0.703 ± 0.016	0.713 ± 0.032
10 µM, coculture fibroblast: H6231	0.936 ± 0.069	0.832 ± 0.04	0.777 ± 0.022	0.731 ± 0.023	0.6588 ± 0.0048	0.6378 ± 0.0024	0.6029 ± 0.0025	0.584 ± 0.008	0.569 ± 0.014
10 µM, coculture fibroblast: HADF	0.8943 ± 0.00099	0.8588 ± 0.0019	0.803 ± 0.033	0.747 ± 0.034	0.693 ± 0.037	0.657 ± 0.043	0.612 ± 0.056	0.598 ± 0.054	0.574 ± 0.047
10 µM, coculture fibroblast: HCFa	0.8545 ± 0.0039	0.815 ± 0.0093	0.78 ± 0.03	0.724 ± 0.053	0.679 ± 0.092	0.666 ± 0.098	0.655 ± 0.11	0.656 ± 0.11	0.649 ± 0.12
10 µM, coculture fibroblast: HCPF	0.911 ± 0.038	0.87 ± 0.04	0.832 ± 0.032	0.783 ± 0.02	0.698 ± 0.021	0.667 ± 0.029	0.641 ± 0.028	0.603 ± 0.025	0.585 ± 0.036
10 µM, coculture fibroblast: HHSteC	0.884 ± 0.012	0.8494 ± 0.0018	0.796 ± 0.038	0.744 ± 0.051	0.693 ± 0.066	0.666 ± 0.077	0.644 ± 0.1	0.632 ± 0.12	0.612 ± 0.14
10 µM, coculture fibroblast: HMF	0.954 ± 0.064	0.926 ± 0.1	0.893 ± 0.12	0.854 ± 0.12	0.752 ± 0.12	0.705 ± 0.11	0.65 ± 0.096	0.626 ± 0.087	0.607 ± 0.074
10 µM, coculture fibroblast: HPFa	0.92 ± 0.035	0.87 ± 0.054	0.828 ± 0.12	0.757 ± 0.18	0.714 ± 0.22	0.689 ± 0.24	0.664 ± 0.26	0.662 ± 0.28	0.639 ± 0.3
10 µM, coculture fibroblast: HUF	0.8787 ± 0.006	0.775 ± 0.029	0.743 ± 0.048	0.643 ± 0.039	0.562 ± 0.061	0.519 ± 0.073	0.482 ± 0.08	0.476 ± 0.091	0.468 ± 0.096
10 µM, coculture fibroblast: Hs27A	0.95 ± 0.018	0.86529 ± 0.00031	0.825 ± 0.029	0.7684 ± 0.0054	0.7113 ± 0.0013	0.7009 ± 0.0036	0.673 ± 0.011	0.671 ± 0.013	0.636 ± 0.019
10 µM, coculture fibroblast: Hs343T	0.9407 ± 0.0031	0.882 ± 0.012	0.8266 ± 0.007	0.794 ± 0.0088	0.679 ± 0.013	0.633 ± 0.033	0.57 ± 0.038	0.542 ± 0.019	0.53 ± 0.035
10 µM, coculture fibroblast: WS1	0.833 ± 0.0084	0.766 ± 0.018	0.721 ± 0.0083	0.6133 ± 0.0013	0.5311 ± 0.0031	0.5133 ± 0.0035	0.47 ± 0.0038	0.455 ± 0.013	0.448 ± 0.013
100 µM, coculture fibroblast: C12385	0.829 ± 0.042	0.776 ± 0.03	0.733 ± 0.054	0.67 ± 0.026	0.626 ± 0.049	0.598 ± 0.04	0.557 ± 0.038	0.534 ± 0.032	0.52 ± 0.028
100 µM, coculture fibroblast: H6013	0.9617 ± 0.0046	0.974 ± 0.014	0.961 ± 0.025	0.938 ± 0.032	0.882 ± 0.072	0.857 ± 0.087	0.835 ± 0.1	0.84 ± 0.12	0.819 ± 0.12
100 µM, coculture fibroblast: H6019	0.811 ± 0.011	0.78 ± 0.014	0.7826 ± 0.0021	0.7371 ± 0.0033	0.712 ± 0.013	0.696 ± 0.017	0.675 ± 0.031	0.663 ± 0.03	0.661 ± 0.034
100 µM, coculture fibroblast: H6076	0.954 ± 0.018	0.933 ± 0.014	0.931 ± 0.041	0.892 ± 0.037	0.841 ± 0.0068	0.831 ± 0.023	0.797 ± 0.029	0.79 ± 0.022	0.794 ± 0.021
100 µM, coculture fibroblast: H6231	0.886 ± 0.04	0.839 ± 0.048	0.809 ± 0.03	0.786 ± 0.0084	0.726 ± 0.013	0.7018 ± 0.0037	0.6775 ± 0.005	0.648 ± 0.01	0.6272 ± 0.0037
100 µM, coculture fibroblast: HADF	0.88 ± 0.072	0.87 ± 0.069	0.943 ± 0.072	0.932 ± 0.045	0.884 ± 0.041	0.88 ± 0.018	0.8519 ± 0.0024	0.81935 ± 0.00081	0.779 ± 0.016
100 µM, coculture fibroblast: HCFa	0.938 ± 0.05	0.865 ± 0.048	0.91 ± 0.06	0.91 ± 0.036	0.854 ± 0.026	0.8755 ± 0.0057	0.848 ± 0.038	0.849 ± 0.053	0.824 ± 0.055
100 µM, coculture fibroblast: HCPF	0.929 ± 0.014	0.905 ± 0.02	0.886 ± 0.024	0.832 ± 0.056	0.802 ± 0.089	0.793 ± 0.11	0.781 ± 0.1	0.75 ± 0.09	0.727 ± 0.083
100 µM, coculture fibroblast: HHSteC	0.969 ± 0.033	0.981 ± 0.025	0.958 ± 0.015	0.906 ± 0.013	0.837 ± 0.01	0.826 ± 0.018	0.7971 ± 0.0036	0.7742 ± 0.0074	0.735 ± 0.01
100 µM, coculture fibroblast: HMF	0.928 ± 0.0018	0.888 ± 0.018	0.8671 ± 0.0026	0.844 ± 0.011	0.775 ± 0.03	0.745 ± 0.0092	0.7128 ± 0.007	0.703 ± 0.0098	0.69 ± 0.012
100 µM, coculture fibroblast: HPFa	0.953 ± 0.014	0.926 ± 0.028	0.8795 ± 0.006	0.835 ± 0.018	0.782 ± 0.037	0.753 ± 0.043	0.721 ± 0.04	0.7 ± 0.049	0.641 ± 0.067
100 µM, coculture fibroblast: HUF	0.912 ± 0.018	0.87 ± 0.039	0.849 ± 0.029	0.792 ± 0.029	0.743 ± 0.029	0.699 ± 0.023	0.663 ± 0.037	0.654 ± 0.042	0.635 ± 0.016
100 µM, coculture fibroblast: Hs27A	0.945 ± 0.017	0.96 ± 0.028	0.9393 ± 0.0091	0.927 ± 0.014	0.87 ± 0.035	0.885 ± 0.055	0.872 ± 0.062	0.872 ± 0.057	0.834 ± 0.076
100 µM, coculture fibroblast: Hs343T	0.9676 ± 0.005	0.897 ± 0.0084	0.8741 ± 0.0038	0.858 ± 0.015	0.766 ± 0.014	0.751 ± 0.024	0.698 ± 0.029	0.685 ± 0.017	0.673 ± 0.019
100 µM, coculture fibroblast: WS1	0.814 ± 0.02	0.775 ± 0.034	0.69 ± 0.043	0.605 ± 0.051	0.547 ± 0.036	0.528 ± 0.046	0.484 ± 0.023	0.472 ± 0.023	0.467 ± 0.017

Reference: the supplement of paper PMC6078165
